Source: patent US20220315908A1, “NOVEL GARDNERELLA ENDOLYSINS AND USES THEREOF” (priority 2019, published 2022)
In brackets after ≈: the same amount, converted by molar mass. Structures can show the parent of a compound that is named as a salt. Values belong to the molecule of their own block, whether it stands above or below them.

Assays:
G. leopoldii (Gv_11) = test: MIC and MBC microbroth dilution; format: cell-based, Gardnerella leopoldii; settings: for MIC / MBC: Gardnerella leopoldii; for MIC: 48 h
Protocol: (§1) One of the main deficiencies in the treatment of BV is the high rate of recurrence in many women, which leads to repeated administration of antibiotics and concomitant destabilization of the microbiome and other side effects. The minimal inhibitory concentration (MIC) and minimal bactericidal concentration (MBC) on Gardnerella cells of the strains also used for the endolysin activity assays were then measured using the method described in Reference Example 6 and 7. […] Essentially, Gardnerella suspensions at 2.5×10^7 CFU/ml were incubated with the concentration of antibiotics as indicated and incubated for 48 h at 37° C. under anaerobic conditions. […] OD(610) was measured at the beginning and the end of the experiment. At the end of the experiment, 2 ul of each reaction mix was spotted on agar to determine the MBC.
(§2) The conditions under which MIC and MBC were measured are more rigorous than the standard.
(§3) Example 7—Activity assays of a representative (H2B10) of domain swapped endolysins on the growth in suspension of different Gardnerella strains. […] The conditions under which MBC was measured are more rigorous than the standard. […] In general, it is known, that antibiotics only insufficiently eradicate the Gardnerella biofilm, a hallmark of BV, which is one suspected reason for the reported very high recurrence rate of BV. Despite leaving residual viable biofilm, antibiotics wipe parts of the beneficial organisms of the vaginal microbiome which then opens an ecological niche for other pathogens, e.g. fungi.
(§4) Bacteria were plated from cryo stock on BD Choc Agar plates (Gardnerella) and incubated at 37° C. for 48 h under anaerobic conditions. Colonies were scraped from the plate, resuspended in Hardy Broth or NYC-III-HS-pH 5.0, and the suspension adjusted to OD (610 or 620 nm as indicated) 0.05. It has to be noted that two Tecan Microplate readers, having respectively a 610 nm or 620 nm filter, have been used interchangeably in the experiments. Although it doesn't make any difference for the experiments, the exact wavelength used is specified in each example. Antibiotics were prepared as 20× stocks for each of the required final concentrations. 95 μl of cell suspension was mixed with 5 μl antibiotics dilution in a 384-well plate. OD (610-620 as indicated) at the start of the reaction was measured, then the plate was incubated at 37° C. for 48 h under anaerobic conditions. After that, the OD (610-620 as indicated) was measured again for MIC determination, where MIC was defined as the lowest concentration of antibiotic where the OD (610-620 as indicated) was not above the level measured at the beginning of the experiment. After measuring OD, 2 μl of each well were spotted on a NYC-III+HS Agar plate. The plates were then incubated for further 48 h at 37° C. under anaerobic conditions. After incubation, cell growth on each spot was evaluated, and the MBC defined as the lowest concentration of antibiotics where no bacteria grew on the plate. The experiments were conducted in triplicate for each condition. In the second round of MIC and MBC experiments with antibiotics the Gardnerella cell suspension was adjusted to the McFarland standard 0.5 (approximately OD (610) 0.07) and then diluted 1:75 according to the CLSI (Clinical and Laboratory Standards Institute) standards. Antibiotics were prepared according to the CLSI standards and 50 μl of cell suspension was mixed in a 96-well plate with 50 μl antibiotics. Otherwise the MIC and MBC was determined as described above.

G. vaginalis (Gv_9) = test: MIC and MBC microbroth dilution; format: cell-based, Gardnerella vaginalis; settings: for MIC / MBC: Gardnerella vaginalis; for MIC: 48 h
Protocol: as §1, §2, §3, §4

G. piotii (Gv_17) = test: MIC and MBC microbroth dilution; format: cell-based, Gardnerella piotii; settings: for MIC / MBC: Gardnerella piotii; for MIC: 48 h
Protocol: as §1, §2
as §4, with “above. For the MIC and MBC determination of the domain swapped endolysin H2B10 50 μl of Gardnerella cell suspension was mixed in a 96-well plate with 50 μl of H2B10 containing solution, which where serially diluted 1:1. OD610 at the start of the reaction was measured, then the plate was incubated at 37° C. for 48 h under anaerobic conditions. After that, the OD(610) was measured again for MIC determination, where MIC was defined as the lowest concentration of H2B10 where the OD was not or only slightly above the level measured at the beginning of the experiment.” for “above.”

G. swidsinskii (Gv_23) = test: MIC and MBC microbroth dilution; format: cell-based, Gardnerella swidsinskii; settings: for MIC / MBC: Gardnerella swidsinskii; for MIC: 48 h
Protocol: as §1, §2, §3, §4

[1] = system: all tested Gardnerella strains; test: MIC and MBC microbroth dilution, stated over all tested strains; format: cell-based; settings: 48 h, first round: 2.5×10^7 CFU/ml, 48 h anaerobic (FIG. 14)
Protocol: as §1, with “At the end of the experiment, 2 ul of each reaction mix was spotted on agar to determine the MBC.” left out
as §2
Example 7—Activity assays of a representative (H2B10) of domain swapped endolysins on the growth in suspension of different Gardnerella strains. […] The conditions under which MBC was measured are more rigorous than the standard. […]
Bacteria were plated from cryo stock on BD Choc Agar plates (Gardnerella) and incubated at 37° C. for 48 h under anaerobic conditions. […] It has to be noted that two Tecan Microplate readers, having respectively a 610 nm or 620 nm filter, have been used interchangeably in the experiments. […]

[2] = second round: 1×10^5-1×10^6 CFU/ml (CLSI), NYC-III broth, 96-well, 48 h anaerobic
[3] = second round: 1×10^5-1×10^6 CFU/ml (CLSI), NYC-III broth, 96-well
[4] = first round: 2.5×10^7 CFU/ml, Hardy broth, 384-well, 48 h 37° C. anaerobic
[5] = first round: 2.5×10^7 CFU/ml, minimal concentration fully eradicating the suspension

MIC (G. leopoldii (Gv_11); [2]): 0.5 µg/mL
MIC (G. vaginalis (Gv_9); [2]): 0.25 µg/mL
MIC (G. piotii (Gv_17); [2]): 0.25 µg/mL
MIC (G. swidsinskii (Gv_23); [2]): 0.25 µg/mL
Structure (SMILES): CCC[C@@H]1C[C@@H](C(=O)N[C@@H]([C@H]2O[C@H](SC)[C@H](O)[C@@H](O)[C@H]2O)[C@H](C)Cl)N(C)C1 [Clindamycin hydrochloride]
MBC (G. leopoldii (Gv_11); [3]): 1 µg/mL
MBC (G. vaginalis (Gv_9); [3]): 0.5 µg/mL
MBC (G. piotii (Gv_17); [3]): 1 µg/mL
MBC (G. swidsinskii (Gv_23); [3]): 0.25 µg/mL

MIC (G. leopoldii (Gv_11); [4]): 16 µg/mL (≈ 37.6 µM)
resistance class of MIC, Clindamycin (G. leopoldii (Gv_11); first round): R (>8 mg/mi for Clindamycin)
MIC (G. vaginalis (Gv_9); [4]): 16 µg/mL (≈ 37.6 µM)
resistance class of MIC, Clindamycin (G. vaginalis (Gv_9); first round): R (>8 mg/mi for Clindamycin)
MIC [1]: 16 µg/mL (≈ 37.6 µM)
MIC (G. piotii (Gv_17); [4]): 16 µg/mL (≈ 37.6 µM)
resistance class of MIC, Clindamycin (G. piotii (Gv_17); first round): R (>8 mg/mi for Clindamycin)
MIC (G. swidsinskii (Gv_23); [4]): 16 µg/mL (≈ 37.6 µM)
resistance class of MIC, Clindamycin (G. swidsinskii (Gv_23); first round): R (>8 mg/mi for Clindamycin)
Structure (SMILES): CCC[C@@H]1C[C@@H](C(=O)N[C@@H]([C@H]2O[C@H](SC)[C@H](O)[C@@H](O)[C@H]2O)[C@H](C)Cl)N(C)C1 [Clindamycin]
MBC (G. leopoldii (Gv_11); [5]): 32 µg/mL (≈ 75.3 µM)
MBC (G. vaginalis (Gv_9); [5]): 128 µg/mL (≈ 301 µM)
MBC (G. piotii (Gv_17); [5]): 64 µg/mL (≈ 151 µM)
MBC (G. swidsinskii (Gv_23); [5]): > 128 µg/mL
